Experimental data published in publication PMC8000391.
Results are given in words; binding and its absence hold for the method and conditions named. In cells and extracts the contact can be indirect. Some results given as binding are weak or reduced against the parent protein; the word gives no strength.

Target: T1, murine endothelial nitric oxide synthase (eNOS) (mouse (endogenous in murine mesenteric arteries)) (UniProt P70313)
T1 sequence: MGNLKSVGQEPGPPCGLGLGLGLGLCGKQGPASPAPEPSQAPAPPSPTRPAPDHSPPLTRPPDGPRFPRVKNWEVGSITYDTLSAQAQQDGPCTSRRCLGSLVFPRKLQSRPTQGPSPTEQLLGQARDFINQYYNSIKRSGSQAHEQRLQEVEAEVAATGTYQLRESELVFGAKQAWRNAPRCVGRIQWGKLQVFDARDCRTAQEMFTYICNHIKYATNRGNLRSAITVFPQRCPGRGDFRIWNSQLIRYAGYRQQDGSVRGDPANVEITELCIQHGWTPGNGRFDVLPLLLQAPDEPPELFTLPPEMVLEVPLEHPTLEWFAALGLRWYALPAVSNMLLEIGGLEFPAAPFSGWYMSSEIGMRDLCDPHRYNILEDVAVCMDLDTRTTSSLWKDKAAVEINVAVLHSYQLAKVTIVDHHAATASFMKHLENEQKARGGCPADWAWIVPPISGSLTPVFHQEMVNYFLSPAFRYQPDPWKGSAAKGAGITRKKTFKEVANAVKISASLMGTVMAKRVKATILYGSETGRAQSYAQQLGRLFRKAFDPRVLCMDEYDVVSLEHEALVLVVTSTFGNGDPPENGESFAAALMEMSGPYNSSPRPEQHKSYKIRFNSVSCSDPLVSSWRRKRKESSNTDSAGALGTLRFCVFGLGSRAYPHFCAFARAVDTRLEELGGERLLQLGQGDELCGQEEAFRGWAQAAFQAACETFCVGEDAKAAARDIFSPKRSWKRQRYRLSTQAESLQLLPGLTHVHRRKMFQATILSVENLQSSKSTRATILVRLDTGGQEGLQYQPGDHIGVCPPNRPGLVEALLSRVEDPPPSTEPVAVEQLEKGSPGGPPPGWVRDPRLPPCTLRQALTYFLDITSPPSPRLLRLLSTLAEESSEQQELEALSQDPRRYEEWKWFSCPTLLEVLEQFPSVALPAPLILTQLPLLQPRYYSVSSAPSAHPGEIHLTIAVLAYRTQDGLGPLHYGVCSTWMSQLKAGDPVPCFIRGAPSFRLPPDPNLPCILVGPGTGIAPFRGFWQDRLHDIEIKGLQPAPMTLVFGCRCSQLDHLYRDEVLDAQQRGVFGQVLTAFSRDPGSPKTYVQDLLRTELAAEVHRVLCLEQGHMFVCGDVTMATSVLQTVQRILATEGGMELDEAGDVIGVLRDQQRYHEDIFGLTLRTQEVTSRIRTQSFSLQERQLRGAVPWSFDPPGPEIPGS
Test: proximity ligation; DuoLink In Situ kit on en face murine mesenteric arteries pinned on SYLGARD blocks; primary antibodies against GRHL3 and eNOS

binding: binds
B1: endogenous murine Grainyhead-like 3 (GRHL3) (protein, UniProt Q5FWH3 1-603)
chain: MSNELDFRSVRLLKNDPVSFQKFPYSNEDEAWKTYLENPLTAATKAMMRVNGDEESVAALSFLYDYYMGPKEKRILSSSTGGRNDQGKKFYHSMDYEPDLAPLESPTHLMKFLTENVSGSPDYTDQLKKNNLLGLEGVLPTPGKTNTVPPGPSKLEASSMDSYLLPASDIYDNGSLNSLFESIHGVPPTQRWQPDSTFKDDPQESLLFPDILKTSPDPPCPEDYPGLKSDFEYTLGSPKAIHIKAGESPMAYLNKGQFYPVTLRTPAGGKGLALSSSKVKSVVMVVFDNDKVPVEQLRFWRHWHSRQPTAKQRVIDVADCKENFNTVQHIEEVAYNALSFVWNVNEEAKVFIGVNCLSTDFSSQKGVKGVPLNLQIDTYDCGAGTERLVHRAVCQIKIFCDKGAERKMRDDERKQFRRKVKCPDSSNNAGIKGCLLSGFRGNETTYLRPETDLETQPVLFIPNLHFSSLQRPGGVVPSAGHSSSDRLPLKRTCSPFAEEFEPLPSKQAKEDDLQRVLLYVRRETEEVFDALMLKTPDLKGLRNAISEKYGLPEENICKVYKKCKRGILVNMDNNIIQHYSNHVAFLLDMGELDGKIQIILKEL
